Measurements from PubChem BioAssay AID2685 (National Center for Advancing Translational Sciences (NCATS), 2010).
The list shows a part of the results. Further columns of the screen follow, without active or inactive calls. Compounds called inactive in the main read-out are mostly missing here. Words in brackets tell the shape of the fitted curve; partial curves, single points and poor fits give uncertain potencies.

Assay: qHTS Assay for Lipid Storage Modulators in Drosophila S3 Cells;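 for cell number change: cells counted by Cell Tracker Red CMTPX staining in the red channel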
Conditions: BODIPY lipid droplet fluorescence, 18-24 h; for cell number change: measured here: cell count max response, cells fed with added oleic acid
Method in brief: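 Laser-scanning cytometry quantifies lipid droplet accumulation (500–530 nm total intensity; droplet/cell object ratio) in oleic acid-fed (400 uM added) Drosophila S3 cells treated with a concentration series. 20 uM Triacsin C defined 100% inhibition.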

[1] = measured here: cell number channel AC50, cells fed with added oleic acid
[2] = measured here: lipid fluorescence (Fed channel) AC50, cells fed with added oleic acid

Structure (SMILES) | cell number change [%] | AC50 [1] | AC50 [2]
CC(=O)c1ccc(NS(=O)(=O)c2ccc(CC(C)C)cc2)cc1 | -49.2 | 18.4 µM [falling, single point] | 18.4 µM [falling, single point]
Cc1nnc(SCC(=O)Nc2sccc2C(N)=O)n1Cc1ccccc1 | -1.82 | – | 5.8 µM [rising, full curve]
COc1cc(C2C(C(=O)c3ccco3)=C(O)C(=O)N2c2cc(C)on2)cc(Br)c1O (configuration not stated) | -10 | – | –
Cn1cc(Br)c(C(=O)NNC(=O)c2ccccc2)n1 | -51 | 16.4 µM [falling, partial curve, poor fit] | 18.4 µM [falling, single point]
CCn1c(N)c(C(=O)NCc2ccc3c(c2)OCO3)sc1=S | 6.79 | – | 2.59 µM [rising, partial curve]
O=C(COC(=O)c1cncc(Br)c1)NC1CCCC1 | -13.2 | – | –
Cc1ccc(C(=O)O/N=C(\c2ccccc2)c2ccncc2)cc1 | 16.8 | – | –
Cc1cc(C)cc(Oc2ccc(N)cc2)c1 | -31 | 29.1 µM [falling, single point] | 1.64 µM [rising, full curve, poor fit]
C=CCNc1nc(-c2ccc(OC)cc2OC)cs1 | -4.21 | – | 0.00461 µM [rising, full curve, poor fit]
Cc1cc(/C=C2/C(=O)NN(c3ccccc3)C2=O)c(C)n1-c1ccc(O)cc1 | -4.24 | – | 29.1 µM [rising, single point]
COC(=O)c1ccccc1NC(=O)N1CCc2ccc(NC(=O)c3ccccn3)cc2C1 | 20.5 | – | –
CC1CCN(C(=O)CSc2nc3ccccc3s2)CC1 | 81.8 | 18.4 µM [rising, partial curve] | 29.1 µM [rising, single point]
Cc1ccc(S(=O)(=O)N2CCN(Cc3nnc(-c4c(-c5ccccc5)noc4C)o3)CC2)cc1 | -34.1 | 0.651 µM [falling, partial curve, poor fit] | 2.31 µM [falling, partial curve, poor fit]
COc1ccccc1CNS(=O)(=O)c1cc(-c2cc(C)no2)ccc1C(C)C | -5.32 | – | 29.1 µM [falling, single point]
O=C(N/N=C/c1ccc2c(c1)OCO2)c1ccn(Cc2ccc(Cl)cc2)n1 | 49 | 4.11 µM [rising, full curve] | 29.1 µM [rising, single point]
O=C1CC(c2ccc(Cl)cc2)n2nc(NS(=O)(=O)c3ccc(F)cc3)nc2N1 (configuration not stated) | 8.6 | – | 18.4 µM [rising, single point]
CCC1(c2ccc(F)cc2)NC(=O)N(CC(=O)NCC(=O)Nc2cccc(C)c2C)C1=O (configuration not stated) | 57 | 2.59 µM [rising, full curve] | –
O=C(Cc1ccccc1)N1CCCC(c2nc(-c3cccs3)no2)C1 (configuration not stated) | -1.5 | – | 0.651 µM [falling, single point]
CCn1c(=O)c2c(nc(SCC(=O)N3CCCC(C)C3)n2C)n(C)c1=O (configuration not stated) | 1.3 | – | 6.51 µM [falling, single point]
CN1/C(=C\C(=O)CN2C(=O)NC3(CCCCCC3)C2=O)C(C)(C)c2ccccc21 | -28.1 | – | 18.4 µM [falling, single point]

Structure (SMILES) | cell number change [%] | AC50 [1] | AC50 [2]
Cc1ccc2c(C)c(C(=O)N(Cc3ccncc3)CC3CCCO3)oc2c1C (configuration not stated) | 29.2 | – | –
CON/C=C(\C=Nc1ccc(Cl)cc1Cl)c1ncc(C(F)(F)F)cc1Cl | -70 | 16.4 µM [falling, single point] | 0.58 µM [rising, single point]
Cc1cccc(NC(=O)CN2C(=O)NC(C)(c3ccc4ccccc4c3)C2=O)n1 (configuration not stated) | -6.43 | 6.51 µM [falling, single point] | 6.51 µM [falling, single point]
Cc1ccccc1NC(=O)/C(C#N)=C/c1ccc(-c2ccc(Cl)c(C(=O)O)c2)o1 | 20 | – | –
O=C(NCc1ccccc1)Nc1cccn(Cc2ccccc2F)c1=O | 18.1 | 2.91 µM [falling, single point] | 0.00461 µM [rising, full curve, poor fit]
COc1ccccc1C(=O)N=C1NC(=O)CC2C(=O)NCCN12 (configuration not stated) | -37 | 23.1 µM [falling, single point] | 29.1 µM [falling, single point]
CSc1ccccc1NC(=O)CN1CCCCC1C (configuration not stated) | -21 | 3.26 µM [falling, full curve, poor fit] | –
Clc1ccc(OCCN2CCCCC2)c(Cl)c1 | -89.8 | 32.6 µM [falling, partial curve] | 25.9 µM [falling, partial curve]
C=CCOC(=O)/C(=C/c1cccc2ccccc12)NC(=O)c1ccccc1 | 5.67 | – | 0.116 µM [falling, full curve, poor fit]
CCN(Cc1ccncc1)C(=O)c1cc(COc2ccc(OC)cc2Cl)on1 | 28.5 | – | 6.51 µM [rising, partial curve, poor fit]
O=C(Nc1ccc2c(c1)CCC2)c1cc(S(=O)(=O)N2CCN(c3ccccc3)CC2)ccc1Cl | – | – | 6.51 µM [falling, single point]
COc1cccc(C=O)c1OC(=O)N1CCOCC1 | 18.9 | – | 23.1 µM [rising, partial curve, poor fit]
COc1ccc(NC(=O)Cn2nnc(C(=O)NCc3ccccc3)c2N)cc1Cl | -12.9 | – | 0.0731 µM [falling, partial curve]
O=C(O)c1c(C(=O)N2N=C3/C(=C/c4ccccc4)CCCC3C2c2ccccc2)cccc1[N+](=O)[O-] (configuration not stated) | 44.4 | 4.61 µM [rising, full curve, poor fit] | –
COCCNC(=O)/C(C#N)=C/c1ccc(C(=O)O)cc1 | 65.6 | – | –
CCOC(=O)c1c(C)n(CCO)c2ccc(O)cc12 | 37.5 | 29.1 µM [rising, single point] | 14.6 µM [rising, partial curve]
CCCCN(C(=O)c1cc2c(s1)CCCCC2)c1c(N)n(CCC)c(=O)[nH]c1=O | 3.76 | – | –
CCOc1ccc(C(C(=O)NC2CCCCC2)N(C(=O)c2ccccn2)c2cccnc2)cc1 (configuration not stated) | -6.38 | – | 3.66 µM [falling, partial curve, poor fit]
CC(=O)c1ccc(NC(=O)CCc2ccc(C)o2)cc1 | -11.5 | – | 3.26 µM [falling, single point]
O=C(/C=C/c1cccc(Cl)c1)Nn1c(-c2cccs2)nc2ccccc2c1=O | 4.1 | – | 0.731 µM [rising, full curve, poor fit]

Structure (SMILES) | cell number change [%] | AC50 [1] | AC50 [2]
CN(C)c1ccc(/C=C/C#N)cc1 | 62.4 | 6.51 µM [rising, partial curve] | –
Cc1ccccc1NC(=O)NCCc1nc2ccccc2[nH]1 | – | 0.13 µM [rising, full curve, poor fit] | 0.146 µM [rising, full curve, poor fit]
COc1ccccc1-c1nn(-c2ccccc2)cc1C(=O)N1CCc2ccccc2C1 | – | – | 2.31 µM [falling, partial curve, poor fit]
CCOC(=O)c1c(NC(=O)COc2cccc3c2CCN(C)C3=O)sc2c1CCC2 | -53 | 29.1 µM [falling, single point] | 5.8 µM [falling, partial curve, poor fit]
COc1ccc(-c2nnn(CC(=O)N(CC(=O)NC3CCCC3)c3ccccc3F)n2)cc1OC | 11.8 | – | –
CN(C)/N=C/C=C1\CC/C(=C\c2ccc(Br)cc2)C1=O | 73.4 | 18.4 µM [rising, partial curve] | 16.4 µM [rising, partial curve]
CCOc1ccc(-c2nnc(SCC(=O)NC3CC3)o2)cc1 | -5.57 | – | –
CCCn1c(CN2CCN(C(=O)OCC)CC2)nc2cc(NC(C)=O)ccc21 | -10.5 | – | 0.0058 µM [falling, full curve, poor fit]
COc1ccc(-n2c(O)c(/C=N/NS(=O)(=O)c3ccc(C)cc3)c3ccccc3c2=O)cc1OC | – | – | 14.6 µM [falling, partial curve]
CSc1ncccc1C(=O)NCc1ccccc1Cl | -11.1 | – | –
CCc1ccccc1NC(=O)NCc1cccnc1 | -3.64 | – | –
CC(NC(=O)c1ccco1)C(=O)OCC(=O)c1ccc(Cl)s1 (configuration not stated) | -21.1 | – | 32.6 µM [falling, single point]
CC(C)[C@H](NC(=O)c1ccccc1)C(=O)OCC(=O)N1CCN(C(=O)c2ccco2)CC1 | -19.4 | – | –
COc1ccccc1CCC(=O)Oc1ccc(C#N)cc1OC | 11.9 | – | 6.51 µM [falling, single point]
Cc1cccc(NC(=O)CN(C2=NC3CS(=O)(=O)CC3S2)c2ccccc2F)c1 (configuration not stated) | 20.2 | 2.59 µM [rising, single point] | 0.651 µM [rising, full curve, poor fit]
CCn1cc([N+](=O)[O-])c(C(=O)N2CCCc3ccccc32)n1 | -6.35 | – | 6.51 µM [rising, single point]
O=C(COC(=O)C1CC(=O)N(Cc2ccccc2)C1)c1ccc(Br)cc1 (configuration not stated) | 78.3 | 29.1 µM [rising, single point] | –
COC(=O)c1cc(-c2ccc(Br)cc2)c2c(=O)[nH]c(=O)n(C)c2n1 | 19.7 | – | –
COc1cc(C(=O)Nc2ccc(NC(=O)C3CCCCC3)nc2)cc(OC)c1OC | 32.3 | – | –
O=C(Cc1ccccc1)NCCSCc1ccco1 | 51.6 | 10.3 µM [rising, partial curve] | –

A few values from the list.
In AC50 [2], `COc1ccc(-n2c(O)c(/C=N/NS(=O)(=O)c3ccc(C)cc3)c3ccccc3c2=O)cc1OC` is entered as 14.6 µM [falling, partial curve]
In cell number change [%], `COC(=O)c1cc(-c2ccc(Br)cc2)c2c(=O)[nH]c(=O)n(C)c2n1` is entered as 19.7
In AC50 [1], `CN(C)c1ccc(/C=C/C#N)cc1` is entered as 6.51 µM [rising, partial curve]
